{"sequences": {"note": "Protein sequences, listed by entry. Tags and fused reporters are not part of them. Residues count along the entry.", "UniProt P08581, residues 25-932": "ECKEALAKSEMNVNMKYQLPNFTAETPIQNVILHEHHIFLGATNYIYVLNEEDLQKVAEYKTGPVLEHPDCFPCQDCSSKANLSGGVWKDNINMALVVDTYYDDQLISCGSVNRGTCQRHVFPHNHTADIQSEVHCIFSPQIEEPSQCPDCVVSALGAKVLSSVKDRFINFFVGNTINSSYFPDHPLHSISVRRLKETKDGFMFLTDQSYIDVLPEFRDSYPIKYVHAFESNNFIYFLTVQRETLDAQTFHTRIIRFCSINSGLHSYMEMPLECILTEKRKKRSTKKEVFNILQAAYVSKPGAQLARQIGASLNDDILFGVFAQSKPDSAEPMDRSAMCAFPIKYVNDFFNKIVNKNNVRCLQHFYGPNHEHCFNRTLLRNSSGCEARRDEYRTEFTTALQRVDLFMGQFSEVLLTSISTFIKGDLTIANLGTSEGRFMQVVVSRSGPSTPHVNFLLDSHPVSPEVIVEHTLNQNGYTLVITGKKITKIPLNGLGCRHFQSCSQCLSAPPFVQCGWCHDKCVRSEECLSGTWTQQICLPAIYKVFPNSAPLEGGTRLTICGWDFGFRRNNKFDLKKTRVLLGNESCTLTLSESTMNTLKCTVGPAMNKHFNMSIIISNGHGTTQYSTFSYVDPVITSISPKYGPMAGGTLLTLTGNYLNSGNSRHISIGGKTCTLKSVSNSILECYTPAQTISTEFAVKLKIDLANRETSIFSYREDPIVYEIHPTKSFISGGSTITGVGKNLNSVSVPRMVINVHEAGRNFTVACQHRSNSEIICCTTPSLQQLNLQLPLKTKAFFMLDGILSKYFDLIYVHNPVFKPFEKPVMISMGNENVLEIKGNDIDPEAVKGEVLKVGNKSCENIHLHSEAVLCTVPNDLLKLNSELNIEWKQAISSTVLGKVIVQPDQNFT"}, "source": "patent US20140193431A1", "about": "(KOREA RESEARCH INSTITUTE OF BIOSCIENCE AND BIOTECHNOLOGY, published 2014)", "binders": {"B1": {"name": "B7 scFv-phage clone (scFv, V domains shown)", "VH": "QVQLQEWGAGLLKPSETLSLTCAVSGGSLSGHYWSWVRLPPGKGLEWIGEISHSGNTNYNSSLKSRASISIDTSKNEYSLNLKSVTAVDTAVYYCARFYGDYPSSYGMDVWGQGTTVTVSS", "VL": "QSALTQPASVSGSPGQSITISCTGTISDIGTYDFVSWYQHKPGKAPKLLIFDVNNRPSGVSSRFSGSKSDNTASLSISGFQAEDEADYYCSSYTDNRGLVLFGGGTKLTVLR"}}, "target": "c-Met (extracellular domain)-Fc (human) (UniProt P08581)", "experiment": "phage display selection on c-Met-Fc", "note": "These are yes or no findings as the source states them, for the method shown. Some results given as binding are weak or reduced against the parent protein; the word gives no strength.", "data": [{"binder": "B1", "values": [{"measurement": "binding", "result": "binds"}]}]}
